Earlier results in patent US12447147B2, “Methods of treating, ameliorating, and/or preventing cancer using pyrvinium compositions” (Thomas Jefferson University, priority 2019, dated 2025).

Settings: oral tablets or suspensions; blood up to 4 days after each dose; cited from earlier work

SMILES: Cc1cc(/C=C/c2ccc3cc(N(C)C)ccc3[n+]2C)c(C)n1-c1ccccc1 [PP, pyrvinium pamoate]
- absorption indicated by plasma specimens: no indication of any absorption
